From paper PMC5833782
No constants are given. Whether binding was seen depends on the method and setting. In cells and extracts the contact can be indirect. Some binding calls cover weakened binding; strength is not graded here.

Sequences of proteins named here, by UniProt entry; tags and fusion partners are left off.
UniProt P35222: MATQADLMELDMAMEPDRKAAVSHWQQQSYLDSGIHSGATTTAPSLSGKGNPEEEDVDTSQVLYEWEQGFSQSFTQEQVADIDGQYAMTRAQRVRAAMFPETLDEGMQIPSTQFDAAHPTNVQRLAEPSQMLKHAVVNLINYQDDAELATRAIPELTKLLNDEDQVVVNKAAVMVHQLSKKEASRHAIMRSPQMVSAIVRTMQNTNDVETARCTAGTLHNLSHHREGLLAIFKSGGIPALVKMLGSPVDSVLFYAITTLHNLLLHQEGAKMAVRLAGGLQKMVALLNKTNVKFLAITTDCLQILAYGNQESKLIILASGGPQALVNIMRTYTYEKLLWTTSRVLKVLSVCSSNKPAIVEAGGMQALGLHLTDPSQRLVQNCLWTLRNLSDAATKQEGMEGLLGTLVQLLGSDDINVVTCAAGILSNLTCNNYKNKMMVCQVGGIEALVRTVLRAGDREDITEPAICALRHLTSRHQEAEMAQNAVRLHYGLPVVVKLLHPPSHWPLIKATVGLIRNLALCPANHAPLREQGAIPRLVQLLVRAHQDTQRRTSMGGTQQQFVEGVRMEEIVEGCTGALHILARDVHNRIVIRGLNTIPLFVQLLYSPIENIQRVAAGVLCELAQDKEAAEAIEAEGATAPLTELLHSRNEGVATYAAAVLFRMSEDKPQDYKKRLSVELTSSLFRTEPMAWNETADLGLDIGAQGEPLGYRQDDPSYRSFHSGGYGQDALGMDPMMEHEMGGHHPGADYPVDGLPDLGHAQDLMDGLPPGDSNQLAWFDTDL

Target: β-catenin (human (endogenous in MCF7)) (UniProt P35222)
Assay: co-IP; endogenous IP from MCF7 cell extracts with anti-β-catenin antibody or non-specific IgG and protein G-agarose beads, 4 °C overnight, immunoblotting; control cells and cells with stable TMEM170B knockdown

binding: binds
B1: Transmembrane protein 170B (protein, UniProt Q5T4T1 1-132)
chain: MKAEGGDHSMINLSVQQVLSLWAHGTVLRNLTEMWYWIFLWALFSSLFVHGAAGVLMFVMLQRHRQGRVISVIAVSIGFLASVTGAMITSAAVAGIYRVAGKNMAPLEALVWGVGQTVLTLIISFSRILATL
